Measured values published in paper doi:10.1101/2020.11.22.393603 (bioRxiv, 2020).
Results are given in words; binding and its absence hold for the method and conditions named. Binding seen in cells or lysates may run through a third protein. Tags and fused reporters may be left off the sequences shown.

Biological target: T1, LSD1-sGFP (35S:LSD1-sGFP, N. benthamiana) (Arabidopsis thaliana) (UniProt P94077)
T1 sequence: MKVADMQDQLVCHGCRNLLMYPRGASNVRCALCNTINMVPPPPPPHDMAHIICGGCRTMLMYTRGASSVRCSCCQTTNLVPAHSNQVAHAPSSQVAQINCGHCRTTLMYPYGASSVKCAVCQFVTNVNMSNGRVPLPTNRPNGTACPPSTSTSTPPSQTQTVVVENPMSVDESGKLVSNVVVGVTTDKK
Experiment: co-IP

With “GLK1ΔCT-Myc (Arabidopsis thaliana) (domain or fragment)” the binding was “no binding”.
